US20140171455A1, “Reduction of Microglia-Mediated Neurotoxicity by Kv1.3 Inhibition” (The Regents of the University of California, priority 2011, published 2014)
For at least one compound, name, drawing or mass did not settle the structure.

Test system: microglia
Experiment: Abeta uptake (phagocytosis) assay in microglia by flow cytometry
Assay type: cell-based
Conditions: 2 hrs pre-treatment
Text: Using an Aβ uptake assay, Applicants pretreated microglia with either control (vehicle only), anti-SRA (scavenger receptor A) antibody, doxycycline or PAP-1. FIG. 2 is a bar graph showing cell-associated fluorescence as measured by flow cytometry after 2 hrs of such pre-treatment. (n=3, *p<0.01 and **p<0.001 compared with control).

In the case of C[C@H]1c2cccc(O)c2C(=O)C2=C(O)[C@]3(O)C(=O)C(C(N)=O)=C(O)[C@@H](N(C)C)[C@@H]3[C@@H](O)[C@@H]21 [doxycycline, reference compound], the “Aβ cell-associated fluorescence (ability of microglia to phagocytose Aβ)” value is reported as “significant decreases”.
